These are yes or no findings as the source states them, for the method shown. In cells and extracts the contact can be indirect. Some binding calls cover weakened binding; strength is not graded here.

The chains behind the UniProt entries cited, without tags or fusion partners.
UniProt Q9Y6E0: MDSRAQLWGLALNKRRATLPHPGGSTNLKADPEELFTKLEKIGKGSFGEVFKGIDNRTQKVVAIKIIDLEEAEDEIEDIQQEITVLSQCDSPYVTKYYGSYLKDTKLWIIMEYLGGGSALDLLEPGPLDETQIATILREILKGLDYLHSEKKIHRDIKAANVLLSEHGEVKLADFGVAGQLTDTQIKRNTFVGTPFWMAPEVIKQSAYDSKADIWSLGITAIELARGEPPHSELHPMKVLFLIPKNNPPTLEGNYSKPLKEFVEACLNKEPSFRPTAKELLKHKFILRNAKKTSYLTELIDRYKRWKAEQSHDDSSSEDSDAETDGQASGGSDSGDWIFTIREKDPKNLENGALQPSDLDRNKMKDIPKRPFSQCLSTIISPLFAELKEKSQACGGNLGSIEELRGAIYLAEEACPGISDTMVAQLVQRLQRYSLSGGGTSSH
UniProt P40763: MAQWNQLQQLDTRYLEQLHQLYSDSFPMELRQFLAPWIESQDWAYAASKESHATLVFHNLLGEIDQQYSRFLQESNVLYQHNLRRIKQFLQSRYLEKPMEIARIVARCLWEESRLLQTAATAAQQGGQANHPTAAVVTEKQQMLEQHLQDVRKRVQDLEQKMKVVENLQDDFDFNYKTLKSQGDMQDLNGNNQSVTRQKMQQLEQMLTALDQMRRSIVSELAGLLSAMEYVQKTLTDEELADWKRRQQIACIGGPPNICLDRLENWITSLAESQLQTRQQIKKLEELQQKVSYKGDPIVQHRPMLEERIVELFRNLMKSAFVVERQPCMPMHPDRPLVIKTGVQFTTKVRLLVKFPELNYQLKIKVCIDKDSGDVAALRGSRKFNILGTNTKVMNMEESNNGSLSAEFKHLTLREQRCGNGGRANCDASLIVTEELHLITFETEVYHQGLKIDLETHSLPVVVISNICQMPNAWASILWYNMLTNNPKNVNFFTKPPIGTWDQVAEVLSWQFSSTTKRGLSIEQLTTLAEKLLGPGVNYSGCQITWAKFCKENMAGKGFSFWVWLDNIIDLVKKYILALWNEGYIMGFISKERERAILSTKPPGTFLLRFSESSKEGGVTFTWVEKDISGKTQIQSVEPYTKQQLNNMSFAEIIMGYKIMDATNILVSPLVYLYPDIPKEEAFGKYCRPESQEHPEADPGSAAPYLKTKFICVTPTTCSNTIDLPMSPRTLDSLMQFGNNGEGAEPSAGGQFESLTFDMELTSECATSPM

This is an account of results in article PMC10011487.

For the test, the target named is Serine/threonine-protein kinase 24 (STK24) (human (endogenous in A549 / H226)) (UniProt Q9Y6E0). Briefly: co-IP; whole cell lysates (NP-40 lysis buffer) of indicated NSCLC cells incubated overnight at 4 °C with primary antibody on Protein L Magnetic Beads, then Western blot. On the technique in general: In western blotting, separated proteins are transferred to a membrane and probed.

Take “Signal transducer and activator of transcription 3 (STAT3) (from UniProt P40763 1-770)”: the binding result is given as “binds”.
